We go through one molecule from publication PMC12646010.

Amino acid sequences for entries named in this document (tags omitted).
UniProt P49715: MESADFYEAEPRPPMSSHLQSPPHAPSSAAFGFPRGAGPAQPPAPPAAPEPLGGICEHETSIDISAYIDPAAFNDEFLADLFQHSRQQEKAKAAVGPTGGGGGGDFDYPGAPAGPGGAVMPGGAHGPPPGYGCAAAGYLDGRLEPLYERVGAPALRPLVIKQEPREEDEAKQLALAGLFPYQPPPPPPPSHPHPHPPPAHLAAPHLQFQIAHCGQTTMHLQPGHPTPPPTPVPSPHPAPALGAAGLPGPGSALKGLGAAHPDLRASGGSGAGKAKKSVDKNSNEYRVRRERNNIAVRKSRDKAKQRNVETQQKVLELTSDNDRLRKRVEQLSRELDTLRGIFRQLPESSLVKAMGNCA

This assay addresses Myc-tagged C/EBPα (CCAAT-enhancer-binding protein alpha) (UniProt P49715). Briefly: co-IP; HepG2 cells co-transfected with Myc-C/EBPα plus FLAG-IFI27 or control vector for 48 h, then DMSO or 5 µM MG132 for 24 h; whole-cell lysates (1% NP-40, 10% glycerol, 2 mM EDTA, 50 mM Tris-HCl pH 7.0, 150 mM NaCl) immunoprecipitated with anti-Myc-tag antibody (legend; methods name anti-C/EBPα antibody), protein A/G beads, 4°C; Western blot for ubiquitin, Myc-tag and FLAG-tag. A general note: A western blot detects proteins with antibodies after separation by electrophoresis.

These are yes or no findings as the source states them, for the method shown. In cells and extracts the contact can be indirect. Tags and fused reporters may be left off the sequences shown.

B1: Interferon alpha-inducible protein 27 (IFI27), N-terminally FLAG-tagged (protein, UniProt P40305 34-122)
chain: ATVVIGGVVAMAAVPMVLSAMGFTAAGIASSSIAAKMMSAAAIANGGGVASGSLVATLQSLGATGLSGLTKFILGSIGSAIAAVIARFY
Turning to B1, the binding entry was “no binding”.
